# Data from PubChem BioAssay AID2685 (National Center for Advancing Translational Sciences (NCATS), 2010).
# The other results are listed elsewhere or left out. Shown are side measurements of this screen, not its main read-out; they come without a call. The list favours compounds with an active or inconclusive main result. Potencies come from curve fits of mixed quality, noted in brackets.
# Test: qHTS Assay for Lipid Storage Modulators in Drosophila S3 Cells;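 for cell number change: cells counted by Cell Tracker Red CMTPX staining in the red channel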
# Conditions: BODIPY lipid droplet fluorescence, 18-24 h; for cell number change: measured here: cell count max response, cells fed with added oleic acid
# How it was run: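 Laser-scanning cytometry quantifies lipid droplet accumulation (500–530 nm total intensity; droplet/cell object ratio) in oleic acid-fed (400 uM added) Drosophila S3 cells treated with a concentration series. 20 uM Triacsin C defined 100% inhibition.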
# [1] = measured here: lipid fluorescence (Fed channel) AC50, cells fed with added oleic acid
# [2] = measured here: cell number channel AC50, cells fed with added oleic acid
smiles,measurement,setting,value
O=C(O)C1CCCN1S(=O)(=O)c1ccc2[nH]c(=O)c(=O)[nH]c2c1 (stereo not given),cell number change,,18.3%
same,AC50,[1],"16.4 µM [falling, partial curve]"
CCN(CC)S(=O)(=O)c1ccc(NC=C(C#N)C#N)cc1,cell number change,,-29.4%
same,AC50,[1],"29.1 µM [falling, single point]"
Cc1ccc(Cl)c(OCC(=O)Nc2ccccc2N2CCCCC2)c1,AC50,[1],"6.51 µM [rising, single point]"
CN(C(=O)c1coc(=O)c2ccccc12)c1ccccc1Cl,AC50,[2],"0.116 µM [rising, single point]"
CC(C(=O)N1CCN(c2ccccc2F)CC1)c1ccc([N+](=O)[O-])cc1 (stereo not given),cell number change,,-19.7%
same,AC50,[1],"3.66 µM [falling, single point]"
COc1ccc(CNc2ncc(-c3ccccc3)n2C)c2ccccc12,cell number change,,-1.05%
O=C(CSc1nnc(-c2ccccn2)n1Cc1ccccc1)NC1CCCC1,cell number change,,-24.2%
same,AC50,[1],"29.1 µM [falling, single point]"
O=C(NC1CCN(Cc2ccccc2)CC1)c1c(F)cccc1F,AC50,[2],"6.51 µM [rising, single point]"
same,AC50,[1],"6.51 µM [rising, single point]"
O=C(c1cnn2ccccc12)N1CCN(C2CCCCC2)CC1,cell number change,,2.43%
same,AC50,[2],"0.58 µM [falling, single point]"
COc1ccc(NC(=S)Nc2ccccc2OC)c(OC)c1,cell number change,,-44.5%
same,AC50,[2],"29.1 µM [falling, single point]"
COc1ccc(Cc2nnc(NC(=O)c3ccc(OC)c(OC)c3)s2)cc1OC,cell number change,,-44.3%
same,AC50,[2],"16.4 µM [falling, single point]"
same,AC50,[1],"23.1 µM [falling, single point]"
CCCCn1nc(C(=O)Nc2cc(C(F)(F)F)ccc2N2CCOCC2)ccc1=O,cell number change,,12.5%
same,AC50,[2],"9.2 µM [rising, single point]"
same,AC50,[1],"29.1 µM [falling, single point]"
COc1ccc(NC(=O)COc2coc(CN3CCc4ccccc4C3)cc2=O)cc1,cell number change,,8.38%
same,AC50,[1],"29.1 µM [falling, single point]"
CCC1(c2ccccc2)NC(=O)N(CC(=O)Nc2cc(C(F)(F)F)ccc2N2CCCC2)C1=O (stereo not given),AC50,[1],"29.1 µM [rising, single point]"
O=C(CCS(=O)(=O)c1ccc(Br)s1)Nc1ccccc1Br,cell number change,,36.5%
same,AC50,[1],"0.00461 µM [falling, full curve, poor fit]"
O=C(COC(=O)/C=C/c1ccco1)NCc1ccc2c(c1)OCO2,cell number change,,17.5%
CCCCn1c(C(C)NC(=O)CCC)nc2ccccc21 (stereo not given),AC50,[1],"6.51 µM [rising, single point]"
CCN(c1ccccc1)S(=O)(=O)c1c[nH]c2ccc([N+](=O)[O-])cc12,AC50,[1],"7.31 µM [falling, partial curve]"
CC(=O)c1ccc(NC(=O)COC(=O)c2ccccc2Nc2ccccc2)cc1,cell number change,,-18.2%
same,AC50,[1],"0.82 µM [rising, full curve, poor fit]"
CCOc1ccc(CC(=O)Nc2nccs2)cc1,cell number change,,99.4%
same,AC50,[2],"16.4 µM [rising, single point]"
CCOC(=O)c1ccccc1N/C=C1\CCCCC1=O,cell number change,,-27.2%
same,AC50,[1],"2.06 µM [falling, full curve]"
Cc1ccc(N2CC(C(N)=O)CC2=O)cc1C (stereo not given),cell number change,,-99.6%
same,AC50,[2],"29.1 µM [falling, partial curve]"
same,AC50,[1],"0.116 µM [falling, full curve, poor fit]"
CC(=O)Nc1ccc(S(=O)(=O)N2CCN(C(=O)CCC3CCCC3)CC2)cc1,cell number change,,26.4%
same,AC50,[1],"29.1 µM [rising, single point]"
O=C(NC1CCCC1)C(=O)N(Cc1cccnc1)C(C(=O)NC1CCCC1)c1ccco1 (stereo not given),cell number change,,-1.38%
same,AC50,[1],"6.51 µM [falling, single point]"
COC(=O)c1sc2cnccc2c1N,AC50,[2],"2.31 µM [rising, partial curve, poor fit]"
Cc1ccc(C)c(COC(=O)CCN=C2NS(=O)(=O)c3ccccc32)c1,cell number change,,-23.3%
same,AC50,[1],"1.64 µM [falling, partial curve]"
Cc1noc(C)c1COc1ccc(C(=O)OC(C)C(=O)Nc2ccc(N3CCOCC3)cc2)cc1 (stereo not given),cell number change,,-7.21%
same,AC50,[2],"0.0731 µM [falling, full curve, poor fit]"
Cn1c(-c2cc3c(C(F)(F)F)nn(C)c3s2)n[nH]c1=S,cell number change,,8.33%
same,AC50,[1],"18.4 µM [falling, single point]"
O=C(Nc1ccc(CSc2ccccc2)cc1)c1ccc(CN2CCOCC2)cc1,cell number change,,-39.7%
same,AC50,[2],"29.1 µM [falling, single point]"
CC(=O)N1c2ccc(S(=O)(=O)N3CCC(C(=O)NCc4ccc(C)cc4)CC3)cc2CC1C (stereo not given),cell number change,,28.9%
same,AC50,[1],"6.51 µM [rising, single point]"
COc1ccccc1-n1c(SCC(=O)c2ccc(O)cc2O)nc2cc([N+](=O)[O-])ccc21,cell number change,,24.2%
same,AC50,[1],"9.2 µM [rising, partial curve]"
CCN(CC(=O)Nc1cc(S(=O)(=O)N2CCCCC2)ccc1Cl)Cc1ccccc1,cell number change,,155%
same,AC50,[2],"18.4 µM [rising, single point]"
Cc1noc(NC(=O)c2ccccc2)c1C#N,AC50,[2],"6.51 µM [falling, single point]"
CCCCC(=O)Nc1sc2c(c1-c1nc3ccccc3s1)CCN(C(C)=O)C2,cell number change,,-12.6%
same,AC50,[2],"1.3 µM [rising, full curve, poor fit]"
same,AC50,[1],"0.82 µM [rising, full curve]"
CCOC(=O)CNC(=O)CSc1nc2cccnc2n1C,cell number change,,3.76%
same,AC50,[1],"0.82 µM [falling, single point]"
Cc1nc(N)sc1-c1nnc(SCC(=O)Nc2nccs2)n1C,cell number change,,-6.93%
same,AC50,[2],"0.058 µM [falling, full curve, poor fit]"
Cc1cc(C)nc(SC(C)CNS(=O)(=O)c2ccccc2)n1 (stereo not given),cell number change,,-14.5%
same,AC50,[2],"4.11 µM [falling, single point]"
CCn1c(SCC(=O)Nc2ccc3c(c2)OCCO3)nnc1C1CC1,cell number change,,10.3%
same,AC50,[1],"8.2 µM [rising, partial curve]"
Cc1ccc(NC(=O)CCSc2nnnn2-c2ccc3c(c2)OCO3)cc1C,cell number change,,83.3%
same,AC50,[2],"1.64 µM [rising, partial curve]"
same,AC50,[1],"5.8 µM [rising, partial curve]"
Cn1cncc1C(=O)c1ccccc1,cell number change,,5.61%
same,AC50,[1],"0.291 µM [falling, full curve, poor fit]"
Cn1c(CCN2CCOCC2)nc2cc(NC(=O)COc3ccc(Cl)cc3)ccc21,cell number change,,7.35%
COc1ccc(NS(=O)(=O)c2cc(NC(=O)C3CCCO3)ccc2N2CCCC2)cc1 (stereo not given),cell number change,,53.3%
same,AC50,[2],"4.11 µM [falling, single point]"
same,AC50,[1],"5.17 µM [rising, partial curve]"
CCOc1ccc(NC(=O)c2cnc3scc(C)n3c2=O)cc1,AC50,[1],"0.58 µM [rising, single point]"
COc1ccc(-n2nc3c(c2NC(=O)c2ccco2)CS(=O)(=O)C3)cc1,cell number change,,23.9%
same,AC50,[1],"20.6 µM [rising, single point]"
CCN(CC)S(=O)(=O)c1ccc(O)c(NC(=O)c2ccc(N3CCOCC3)c([N+](=O)[O-])c2)c1,cell number change,,37.1%
COc1cccc(CN(C)C(=O)c2cccc(S(=O)(=O)NCc3ccccc3)c2)c1OC,cell number change,,8.84%
same,AC50,[2],"6.51 µM [rising, single point]"
COc1cc(NC(=O)c2sc3ncn(CC(=O)N4CCCC(C)C4)c(=O)c3c2C)cc(OC)c1OC (stereo not given),cell number change,,-16.2%
same,AC50,[1],"6.51 µM [rising, single point]"
COC(=O)c1sccc1N/N=C/c1ccc(OC)c(OC)c1OC,cell number change,,11.1%
same,AC50,[1],"0.461 µM [rising, partial curve]"
O=C1c2ccccc2S(=O)(=O)N1CC(O)Cn1ccc2ccccc21 (stereo not given),cell number change,,-6.13%
same,AC50,[2],"0.146 µM [falling, full curve, poor fit]"
O=C(NCc1ccc(OC(F)(F)F)cc1)C1CCC(=O)N(C2CC2)C1 (stereo not given),cell number change,,-11.6%
same,AC50,[1],"29.1 µM [falling, single point]"
COC(=O)c1cccc(Cn2c(Cl)c(/C=N/Nc3ccccc3C)sc2=O)c1,cell number change,,8.93%
same,AC50,[1],"6.51 µM [rising, single point]"
Cc1cc(OCC(=O)O)c2cccc(C)c2n1,AC50,[2],"1.3 µM [falling, full curve, poor fit]"
same,AC50,[1],"0.82 µM [falling, full curve]"
COC(=O)C1CSc2[nH]c(=O)sc2C1c1ccccc1 (stereo not given),cell number change,,2.8%
same,AC50,[1],"0.103 µM [falling, full curve, poor fit]"
COc1ccccc1N1CCN(C(=O)c2cc(C(=O)N3CCN(c4ccccc4OC)CC3)cc([N+](=O)[O-])c2)CC1,cell number change,,0.324%
NC(=S)N1OC[C@@H]2COc3ccc4ccccc4c3[C@@H]21,cell number change,,28.3%
same,AC50,[1],"23.1 µM [rising, single point]"
CCOC(=O)COc1coc(CN2CCN(c3cccc(Cl)c3)CC2)cc1=O,cell number change,,42.8%
same,AC50,[2],"32.6 µM [rising, single point]"
same,AC50,[1],"29.1 µM [rising, single point]"
CCOC(=O)Nc1ccc(OC)c([N+](=O)[O-])c1,cell number change,,7.69%
C(=C1/CCCC2=C1Nc1ncnn1C2c1ccccc1)/c1ccccc1 (stereo not given),cell number change,,-49.4%
same,AC50,[2],"29.1 µM [falling, single point]"
same,AC50,[1],"23.1 µM [falling, single point]"
COCCN(C(=O)Nc1ccc(F)cc1F)c1nc2ccccc2s1,cell number change,,-1.66%
COC(=O)N1c2ccccc2CCc2ccccc21,cell number change,,64%
same,AC50,[2],"29.1 µM [rising, partial curve, poor fit]"
C=CCOc1ccc(C2c3c(oc4ccccc4c3=O)C(=O)N2CCCN2CCOCC2)cc1 (stereo not given),cell number change,,14.9%
same,AC50,[1],"10.3 µM [rising, single point]"

# Some of the entries above in another layout:
smiles	measurement	setting	value
COc1ccc(Cc2nnc(NC(=O)c3ccc(OC)c(OC)c3)s2)cc1OC	AC50	[1]	23.1 µM [falling, single point]
O=C(CCS(=O)(=O)c1ccc(Br)s1)Nc1ccccc1Br	AC50	[1]	0.00461 µM [falling, full curve, poor fit]
COc1ccccc1-n1c(SCC(=O)c2ccc(O)cc2O)nc2cc([N+](=O)[O-])ccc21	cell number change		24.2%
Cc1noc(NC(=O)c2ccccc2)c1C#N	AC50	[2]	6.51 µM [falling, single point]
